Experimental data: publication PMC8464071
Results are given in words; binding and its absence hold for the method and conditions named. In cells and extracts the contact can be indirect. Some entries that bind do so weakly or less than the wild type.

Protein sequences, listed by entry. Tags and fused reporters are not part of them. Lines headed by an entry give the natural chain unless they say otherwise; changes in a name come on top.
UniProt P12956: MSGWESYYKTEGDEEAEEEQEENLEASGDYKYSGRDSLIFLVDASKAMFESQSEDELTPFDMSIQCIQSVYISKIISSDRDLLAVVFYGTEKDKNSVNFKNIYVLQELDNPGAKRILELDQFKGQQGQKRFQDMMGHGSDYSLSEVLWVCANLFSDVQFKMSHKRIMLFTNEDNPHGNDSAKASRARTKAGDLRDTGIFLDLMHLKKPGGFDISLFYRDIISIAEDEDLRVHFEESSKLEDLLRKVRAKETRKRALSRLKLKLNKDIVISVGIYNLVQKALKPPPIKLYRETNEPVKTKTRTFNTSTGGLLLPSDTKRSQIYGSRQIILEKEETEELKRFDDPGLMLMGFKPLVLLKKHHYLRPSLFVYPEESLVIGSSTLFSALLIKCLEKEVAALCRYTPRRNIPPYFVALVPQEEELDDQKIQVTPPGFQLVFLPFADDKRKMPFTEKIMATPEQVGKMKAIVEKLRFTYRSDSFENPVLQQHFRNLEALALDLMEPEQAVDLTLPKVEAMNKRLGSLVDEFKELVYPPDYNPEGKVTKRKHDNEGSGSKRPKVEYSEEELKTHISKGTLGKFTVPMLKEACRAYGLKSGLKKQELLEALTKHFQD
UniProt P12004: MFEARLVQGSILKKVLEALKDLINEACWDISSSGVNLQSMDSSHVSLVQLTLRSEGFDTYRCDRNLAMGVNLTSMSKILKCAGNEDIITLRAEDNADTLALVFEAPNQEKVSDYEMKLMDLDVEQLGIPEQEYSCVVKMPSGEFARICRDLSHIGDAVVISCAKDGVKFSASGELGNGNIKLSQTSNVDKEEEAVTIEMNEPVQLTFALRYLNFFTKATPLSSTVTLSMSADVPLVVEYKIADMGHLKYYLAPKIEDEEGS
UniProt P15927: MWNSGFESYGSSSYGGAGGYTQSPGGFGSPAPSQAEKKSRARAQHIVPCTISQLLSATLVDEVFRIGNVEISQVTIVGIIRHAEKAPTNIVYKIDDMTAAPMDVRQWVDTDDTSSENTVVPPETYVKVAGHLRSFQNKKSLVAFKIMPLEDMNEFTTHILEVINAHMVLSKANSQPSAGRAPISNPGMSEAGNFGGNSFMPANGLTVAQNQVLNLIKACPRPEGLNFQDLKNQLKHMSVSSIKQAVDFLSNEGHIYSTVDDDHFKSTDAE

Molecular target: XAB2 (human (endogenous in U2OS)) (UniProt Q9HCS7)
Test: co-IP; Endogenous XAB2 precipitated from U2OS lysates (cells treated with DMSO or 1 uM CPT for 1 h) with rabbit anti-XAB2 antibody on Dynabeads Protein G, rabbit IgG as control; lysis buffer 20 mM Tris-HCl pH 7.8, 150 mM NaCl, 1 mM EDTA, 0.5% NP-40, with or without 0.2 mg/ml RNase A; 4 h at 4°C; washes with 500 mM NaCl; immunoblot of Ku70, PCNA, RPA32, XAB2

Row | binding | Substance
1 | binds | Ku (from UniProt P12956 1-609; P13010 1-732) (complex)
2 | no binding | PCNA (from UniProt P12004 1-261)
3 | no binding | RPA32 (from UniProt P15927 1-270)
